Source: patent US20250312444A1
Residue numbers refer to the chain shown, from its start. No constants are given. Whether binding was seen depends on the method and setting. Some entries that bind do so weakly or less than the wild type.

The chains behind the UniProt entries cited, without tags or fusion partners. Residues count along the entry.
UniProt P49822, residues 25-608: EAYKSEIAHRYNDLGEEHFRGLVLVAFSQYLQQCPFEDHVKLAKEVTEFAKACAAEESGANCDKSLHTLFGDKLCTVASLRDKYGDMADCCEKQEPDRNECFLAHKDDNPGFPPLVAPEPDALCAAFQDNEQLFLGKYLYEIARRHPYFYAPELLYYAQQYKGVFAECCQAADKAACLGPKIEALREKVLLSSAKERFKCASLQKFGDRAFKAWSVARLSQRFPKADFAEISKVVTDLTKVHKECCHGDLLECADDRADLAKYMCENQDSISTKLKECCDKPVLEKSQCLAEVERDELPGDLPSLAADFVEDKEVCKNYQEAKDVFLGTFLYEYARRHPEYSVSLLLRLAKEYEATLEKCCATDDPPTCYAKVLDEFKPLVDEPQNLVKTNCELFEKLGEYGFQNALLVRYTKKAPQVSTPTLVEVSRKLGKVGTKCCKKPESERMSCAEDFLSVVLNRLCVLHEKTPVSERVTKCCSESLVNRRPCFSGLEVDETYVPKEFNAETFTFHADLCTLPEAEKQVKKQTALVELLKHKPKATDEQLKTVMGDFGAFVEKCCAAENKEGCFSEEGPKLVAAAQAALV
UniProt P02769, residues 25-607: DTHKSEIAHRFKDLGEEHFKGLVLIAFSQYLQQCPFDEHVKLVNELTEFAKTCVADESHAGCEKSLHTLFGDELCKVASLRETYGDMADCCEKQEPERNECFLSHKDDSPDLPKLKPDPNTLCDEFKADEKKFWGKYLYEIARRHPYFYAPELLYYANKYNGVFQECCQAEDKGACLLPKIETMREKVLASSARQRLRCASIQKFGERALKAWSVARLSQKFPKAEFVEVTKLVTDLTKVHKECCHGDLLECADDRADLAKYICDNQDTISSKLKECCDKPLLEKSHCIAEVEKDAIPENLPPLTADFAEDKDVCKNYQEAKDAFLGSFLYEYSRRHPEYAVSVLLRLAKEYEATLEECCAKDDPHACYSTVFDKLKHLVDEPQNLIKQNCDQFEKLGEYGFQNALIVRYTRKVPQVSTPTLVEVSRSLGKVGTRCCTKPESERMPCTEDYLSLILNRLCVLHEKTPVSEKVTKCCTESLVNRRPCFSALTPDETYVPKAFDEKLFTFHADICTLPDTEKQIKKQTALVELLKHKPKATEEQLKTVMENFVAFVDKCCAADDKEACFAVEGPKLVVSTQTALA

B1: 0051 (protein)
chain: EVQLLESGGGLVQPGGSLRLSCAASGFTFLTSCMGWFRQAPGKEREGVSSIYTVGGSTFYTNSVKGRFTISRDNSKNTLYLQMNSLRAEDTAVYYCAAGSPARCRLRDPTTFDYWGQGTLVTVSSGGGGQGGGGQGGGGQGGGGQGGGGQSWMEEVIKLCGRELVRAQIAICGMSTWSGGGSGGSGGGQLYSALANKCCHVGCTKRSLARFC
B2: 0052 (protein)
chain: EVQLLESGGGLVQPGGSLRLSCAASGFTFLTSCMGWFRQAPGKEREGVSSIYTVGGSTFYTNSVKGRFTISRDNSKNTLYLQMNSLRAEDTAVYYCAAGSPARCRLRDPTTFDYWGQGTLVTVSSPGPAPGPAPGPAPGPAPGPAPGPAPGPAPGPASWMEEVIKLCGRELVRAQIAICGMSTWSGGGSGGSGGGQLYSALANKCCHVGCTKRSLARFC
B3: 0064 (protein)
chain: B1 chain with F27N, F29Y, R87Q, A88P
B4: 0065 (protein)
chain: B1 chain with A88P

Columns and labels:
[1] = biological target: dog serum albumin (dog) (UniProt P49822); experiment: SPR Biacore T200, albumin amine-coupled, fusion protein as analyte
[2] = biological target: bovine serum albumin (bovine) (UniProt P02769); experiment: SPR Biacore T200, fusion protein captured by anti-VHH antibody, albumin as analyte

Binder	binding [1]	binding [2]
B1	binds	binds
B2		binds
B3		binds
B4		binds
